From PubChem BioAssay AID1347423 (Functional Genomics Laboratory (NCATS/FGL), 2020)
Out of some 52,000 sequences screened, about 210 (0.4%) were called active.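 How the source made its calls: active means gene whose silencing raises cell survival under the drug, median off-target-corrected z-score across its silencing RNAs 2 or more; inactive means the rest.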 This is one part of the list.

Experiment: Resistance to Poly (ADP-Ribose) Polymerase inhibitor: Gene Identification via Genome-wide siRNA Screen
Conditions: mouse BRCA2 R2336H ES cells, olaparib, CellTiter-Glo viability; hits give high values
In short: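 Mouse BRCA2 R2336H ES cells were reverse-transfected with siRNA (20 nM final), treated at 48 h with 500 nM olaparib, and read by CellTiter-Glo after 72 h. Scores: MAD-based z per siRNA, median per gene, seed off-target correction.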

Row | Sequence | z-score
1 | GGGUAUGCUUCAGUGUUCATT against 2610036N15Rik | inactive: 0.438
2 | GCAGAGUGUGGUUAGUGGGTT against Cobl | inactive: -0.00865
3 | GGAAAAACUCCUCUGAGGCTT against 5330431N19Rik | inactive: 0.714
4 | GGAUCAAGUUAUUUCUUACTT against Olfr1156 | inactive: -0.677
5 | GGCGAAGGAGAAGAAUUAATT against Pem | inactive: 1.17
6 | GGGAGUCUGGUGGAUUGAUTT against Rln1 | inactive: 0.141
7 | GGCUCAUGGAAAACUCUAUTT against Hspa9a | inactive: -2.84
8 | GGAGUGGAUGACAUGAUCCTT against Myo7b | inactive: 0.203
9 | GGAUUUUAAUGUAGGAGAGTT against Pip5k2b | inactive: 0.563
10 | GGUGACCACUUUAAACUUCTT against Znhit1 | inactive: 0.124
11 | GGACCAUUUGGUUAAUGCCTT against Fkbp3 | inactive: 0.761
12 | GGUUUUGGCGGAUACUAAGTT against M6prbp1 | inactive: 1.34
13 | GCUAGAAGACAAUUACCUGTT against 4632419K20Rik | inactive: -0.492
14 | GGCUCUUCUGUCACCUUCATT against Prr3 | inactive: 0.366
15 | GGAUAUCAUAUUUUCUCAGTT against 4921509E07Rik | inactive: 1.1
16 | GGAGAAACAGAUUGAGCAGTT against Atp6v1e2 | inactive: 1.54
17 | GGCCUGAGCUGAUUGAGUATT against Actn4 | inactive: -1.59
18 | GGGCCAUGCAAUCAUCAAGTT against Mesdc1 | inactive: 0.738
19 | GCUCUAGGGUCGUAAUGUUTT against Ralb | inactive: -1.8
20 | GCUAUGUCAUGGAAAGAAUTT against Pik3c2a | inactive: -0.813
21 | GGUCUACAGGCCUAUGUUGTT against A230051G13Rik | inactive: -2.26
22 | GCUGGUAGAAUACUAAGUATT against Metrn | inactive: -0.956

Row | Sequence | z-score
23 | GCUUACCAAUUGAAAACUGTT against Terf1 | inactive: 0.845
24 | GGCUGGGAAAAAAAAAGAATT against Ifi205 | inactive: -0.0763
25 | GGCAAGCUUCCAGAUCGAATT against Adam23 | inactive: -0.961
26 | CCCAACUUCCGAAAGCUGUTT against Slc6a1 | inactive: 1.58
27 | GGUCACUUCCUGUCUUUAATT against Tslpr | inactive: -0.846
28 | CGUGUAGGCAGAAUAGUUATT against Ankrd16 | inactive: -0.952
29 | GCCGCUUUCAUUAAGGCUGTT against Pdcd10 | inactive: -0.292
30 | GGAUCAUACAAUAUCCUUUTT against Olfr466 | inactive: -0.233
31 | GGUUUAUAGGCCUUCUUCCTT against Flot2 | inactive: -0.238
32 | CGUUGUCAGUGUAAAUAUUTT against Osbpl6 | inactive: 1.09
33 | CGGUCUAUGAAAGUUAUUCTT against Mcmdc1 | inactive: -0.818
34 | GGUGUUGAACCUCAUCCAGTT against Tom1 | inactive: -1.82
35 | GCAUGUUUGGAUUGCUAUUTT against Olfr653 | inactive: -0.135
36 | GGCAUUGUGAUUCUUUGUCTT against Tal1 | inactive: -0.684
37 | GCCCAUGGAUACUACUUCATT against Syncrip | inactive: 1.33
38 | GAGAGAGGGAAUUUGCUCCTT against Pcdhb8 | inactive: -0.173
39 | GGAAGUAUCGAGAUUCAUGTT against A330068P14Rik | inactive: -0.372
40 | GCACAUAGUAAGAACUUAUTT against 2010316F05Rik | inactive: -1.03
41 | GGAGGCAAUUCAGAAGUGGTT against 2900001O04Rik | inactive: -0.453
42 | GGAAGGUCUUCGAGAUUUUTT against Gpr75 | inactive: 1.85
43 | GGAAGUGAUUCUGCUAUGUTT against 2610510J17Rik | inactive: -1.91
44 | GCUUUAAGCCCUGCUCUGUTT against D030069K18 | inactive: -0.886

Pulled one by one from the entries so far, four records:
Row | Sequence | z-score
33 | CGGUCUAUGAAAGUUAUUCTT against Mcmdc1 | inactive: -0.818
42 | GGAAGGUCUUCGAGAUUUUTT against Gpr75 | inactive: 1.85
41 | GGAGGCAAUUCAGAAGUGGTT against 2900001O04Rik | inactive: -0.453
27 | GGUCACUUCCUGUCUUUAATT against Tslpr | inactive: -0.846

Next part

Row | Sequence | z-score
45 | GGUACGAAAAAUUCCUACGTT against Ang4 | inactive: 0.344
46 | GGAAAGUGUGUGUUAUAUUTT against Zfp358 | inactive: 1.97
47 | GCAACAAGCUUUCUGUGCGTT against 4933403G14Rik | inactive: 1.4
48 | GGAAUACCAGACCACACUGTT against 5430435G22Rik | inactive: -0.285
49 | GGAAAAAACGCACCAGCAUTT against Pou2f1 | inactive: -0.673
50 | GCUACAGAUUUCAGGAAAGTT against Gm1128 | inactive: 1.85
51 | CCUGAUCUCAGCCUAUACUTT against Rapgef6 | inactive: 2.52
52 | GGUAAAUGACAACUUUCUUTT against Slco6b1 | inactive: -0.233
53 | GGUGAAGCAAAACGGAGGATT against H2-M10.1 | inactive: 0.687
54 | GCAUCGAAGAGUACCUUCATT against Zfhx1b | inactive: -0.293
55 | GGCUUUCAGGAUAUCAUUUTT against Hist1h3f | inactive: 0.25
56 | GGAGUAUGCGUGUUGCCAATT against 1700018B08Rik | inactive: 1.36
57 | UAUUACAAUGAUCACUGGCTT against Idb1 | inactive: 0.0274
58 | GCUGUAAGGAGGAACUUCUTT against Btg1 | inactive: 1.65
59 | GAUUACCGCACUUCAGAUCTT against BC088983 | inactive: -1.94
60 | GGGAAUUCCUCAGUUCAAATT against Adam7 | inactive: -0.528
61 | GGAAGUGAUUGAAAUGGUGTT against Ror1 | inactive: -1.77
62 | GGAGAAAAAACUAAAGGAGTT against Abca3 | inactive: 1.28
63 | GAGGCUGUUAGAGAAAACGTT against Frat2 | inactive: -0.497
64 | GGAACUGAGCCAAGAAGCUTT against 1700058C01Rik | inactive: -0.232
65 | GGAGGCUCAAGUCCAUCACTT against A930104D05Rik | inactive: 0.023
66 | GGAUUUUCCUGAUGAGGUUTT against Cdk5rap1 | inactive: -1.89
